Results from article doi:10.1101/2022.03.01.482527.
These are yes or no findings as the source states them, for the method shown. In cells and extracts the contact can be indirect. Some results given as binding are weak or reduced against the parent protein; the word gives no strength.

Chains of the proteins cited; added tags and fusions are not shown. Lines headed by an entry give the natural chain unless they say otherwise; changes in a name come on top.
UniProt P62745, whole entry: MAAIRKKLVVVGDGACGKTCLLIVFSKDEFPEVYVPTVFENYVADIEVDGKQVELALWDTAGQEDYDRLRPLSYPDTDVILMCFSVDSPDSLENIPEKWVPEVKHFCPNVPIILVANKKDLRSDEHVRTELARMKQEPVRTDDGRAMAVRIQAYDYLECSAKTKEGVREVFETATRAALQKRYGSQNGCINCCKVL

What was measured:
Assay in all cases: co-IP
GFP-RhoB Q63L = GFP-RhoB Q63L (UniProt P62745)
GFP-RhoB T19N = GFP-RhoB T19N (UniProt P62745)
GFP-RhoB wild type = GFP-RhoB wild type (UniProt P62745)

binding (GFP-RhoB Q63L): binds | binding (GFP-RhoB T19N): binds | binding (GFP-RhoB wild type): binds
Substance: HA-Solo (wild type) (from UniProt Q8TER5 1-1519)
